Laboratory results: publication doi:10.1101/2021.07.06.451342
No constants are given. Whether binding was seen depends on the method and setting. In cells and extracts the contact can be indirect. Binding calls can cover weak binding; strength is not graded here.

B1: CatSperζ (protein, UniProt Q9CQP8 1-194)
chain: MEESVKPVPKHANHRRSSVRSSLYGDVRDLWSTATMSTANVSVSDVCEDFDEEGKSVRNRIRKYSQTISIRDSLNLEPEEIQQQARRELELCHGRSLEHGEDHEESETSLASSTSESLIFSLWKPHRTYWTEQQNRLPLPLMELMETEVLDILKKALITYRSTIGRNHFMTKELQGYIEGIRKRRNKRLYFLDQ
B2: CatSper1 (protein, UniProt Q91ZR5 1-686)
chain: MDQSSRRDESYHETHPGSLDPSHQSHPHPHPHPTLHRPNQGGVYYDSPQHGMFQQPYQQHGGFHQQNELQHLREFSDSHDNAFSHHSYQQDRAGVSTLPNNISHAYGGSHPLAESQHSGGPQSGPRIDPNHHPHQDDPHRPSEPLSHPSSTGSHQGTTHQQYHERSHHLNPQQNRDHADTISYRSSTRFYRSHAPFSRQERPHLHADHHHEGHHAHSHHGEHPHHKEQRHYHGDHMHHHIHHRSPSASQLSHKSHSTLATSPSHVGSKSTASGARYTFGARSQIFGKAQSRESLRESASLSEGEDHVQKRKKAQRAHKKAHTGNIFQLLWEKISHLLLGLQQMILSLTQSLGFETFIFIVVCLNTVILVAQTFTELEIRGEWYFMVLDSIFLSIYVLEAVLKLIALGLEYFYDPWNNLDFFIMVMAVLDFVLLQINSLSYSFYNHSLFRILKVFKSMRALRAIRVLRRLSILTSLHEVAGTLSGSLPSITAILTLMFTCLFLFSVVLRALFQDSDPKRFQNIFTTLFTLFTMLTLDDWSLIYIDNRAQGAWYIIPILMIYIVIQYFIFLNLVIAVLVDNFQMALLKGLEKVKLEQAARVHEKLLDDSLTDLNKADANAQMTEEALKMQLIEGMFGNMTVKQRVLHFQFLQLVAAVEQHQQKFRSQAYVIDELVDMAFEAGDDDYGK
B3: CatSper2 (protein, UniProt A2ARP9 1-588)
chain: MAQEQGHFQLLRADAIRSKLIDTFSLIEHLQGLSQAVPRHTLREILDPSYQQKLMSGDQEQLVRFSIKPRRMGHITHSRRLLSRLRVRCSRMPPLSLWAGWVLDSSVFSKFIISLIFLNTFVLMVEIELMESTNTALWPVKLALEVADWFILLSFIVEILLMWLASFSLFWKDAWNVFDFFVTLLSLLPELVVLLGVPAHSVWLQLLRVCRVLRSLKLFARFRQIKVILLALVRALKSMTFLLMLLLIFFYIFAVTGVYFFREYSRSTIEGLEYNMFFSDLLNSLVTVFILFTLDHWYAVLQDIWKVPESSRVFSSIYVILWLLLGSIIFRNIIVAMMVTNFQNIRSELSEEMSHLEVQYKADMFKQQIIQRRQHSESLRGTSLGKVSEDIIETSDASDDDDDDDDDDDDDDDDDDDKSDATESDNEESDSENSESENSESEKIDPEKDYAKKSYPEKSHPEKSYPEKSHPEKSYPEKSHPKKSYDEQAEAEKVKEESKEKAYPVSHSISSHGSTAADTAFLENLDWETLVHENLPGLMDMDQDDRIVWPRDSLFRYFELLEKLQYNLEERKKLQEFAVQALMSFEDK
B4: CatSper4 (protein, UniProt Q8BVN3 1-442)
chain: MSEKHKWWQQVENIDITHLGPKRKAYELLGRHEEQVLINRRDVMEKKDAWDVQEFITQMYIKQLLRHPAFQLLLAFLLLSNAITIALRTNSYLGQKHYELFSTIDDIVLTILICEVLLGWLNGFWIFWKDGWNILNFAIVFILFMGFFIKQLDMVAITYPLRVLRLVHVCMAVEPLARIIKVILQSMPDLANVMALILFFMLVFSVFGVTLFGAFVPKHFQNMGVALYTLFICITQDGWLDIYTDFQMDEREYAMEVGGAIYFAVFITLGAFIGLNLFVVVVTTNLEQMMKTGEEEGHLNIKFTETEEDEDWTDELPLVHCTEARKDTSTVPKEPLVGGPLSNLTEKTCDNFCLVLEAIQENLMEYKEIREELNMIVEEVSSIRFNQEQQNVILHKYTSKSATFLSEPPEGANKQDLITALVSREKVSDSNINMVNKHKFSH
B5: CatSper3 (protein, UniProt Q80W99 1-395)
chain: MSQHFHHNPVRVKSGSLFATASEALQARLSKIKRKDKECQAYFRKVIKSTFFQIVMITTVTTNSFLLVLGTNYDIQFEFFRTFEVSELFFVSVYVCEFLMKVYVDPITYWKDGYNILDVIILIILTIPYLLRKIKGNHSAYLHFADGIQSLRILKLISYSRGIRTLIIAVGETVYTVASVLTLLFLLMFVFAILGFCLFGVTDRGDLENWGNLASAFFTLFSLATVDGWTDLQEELDKRKFTVSRAFTILFILLASFIFLNMFVGVMIMHTEDSMKKFERDLTLERNLAIMEEKQIILKRQQEEVNRLMNTQKSGSMNFIDMVEGFKKTLRHTDPMVLDDFSTSLSFIDIYLVTLDNQDVIVSKLQELYCEIVNVLSLMLEDMPKESSSSLSGLS

target: C2CD6S (C2 calcium dependent domain containing 6, short isoform) (mouse); experiment: co-IP

binding	Binder
no binding	B1
binds	B2
binds weakly	B3
binds	B4
binds	B5
